# Some of the results follow.
# Biological target: T1, OsSMF1 (Oryza sativa, UniProt Q6ZLB0 1-436)
# T1 sequence: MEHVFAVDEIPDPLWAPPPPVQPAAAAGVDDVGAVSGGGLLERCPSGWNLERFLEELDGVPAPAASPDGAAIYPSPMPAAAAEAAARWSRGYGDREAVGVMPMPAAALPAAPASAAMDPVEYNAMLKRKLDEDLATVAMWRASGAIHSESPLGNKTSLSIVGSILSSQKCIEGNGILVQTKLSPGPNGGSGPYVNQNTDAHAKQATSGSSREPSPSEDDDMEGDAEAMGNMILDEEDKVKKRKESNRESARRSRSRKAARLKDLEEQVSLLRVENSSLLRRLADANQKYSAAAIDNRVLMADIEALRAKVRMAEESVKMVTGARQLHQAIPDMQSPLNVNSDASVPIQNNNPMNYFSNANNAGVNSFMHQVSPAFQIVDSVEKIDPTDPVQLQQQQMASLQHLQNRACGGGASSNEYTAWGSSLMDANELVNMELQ
# Assay: protein-binding microarray (RPBM); PBS, 2% BSA, 51.3 ng/ul salmon testes DNA, 50 uM zinc acetate, 200 nM TF, 25 C, 1 h; high values mean tight binding
# Settings: protein: recombinant; tags: N-terminal polyhistidine and DsRed monomer fusion (pET32a); chain copies: 2; label: CyDye5-dUTP incorporated in the synthesized complementary strand; 3' TTTTT single-stranded linker to array surface; dsDNA, one strand shown
# Outline: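 Per-feature fluorescence intensity (arbitrary units), read on an Axon 4000B scanner, is the binding signal. Transcription factors carrying an N-terminal polyhistidine tag and DsRed fusion were expressed in E. coli BL21-CodonPlus and purified on Ni–NTA. A custom Agilent array, made double-stranded by primer extension with Cy5-dUTP and blocked with 2% BSA, was incubated with 200 nM protein in PBS, 2% BSA, salmon testes DNA and 50 µM zinc acetate at 25 °C for 1 h and then washed.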
row,Sequence,binding signal
1,TTTGACGTCGATAGAGTGGTTATGCGTTATCAGTTTGCATCGGAGTCACCTAGTGCAG,4000 fluorescence intensity (a.u.)
2,CGCGCCGTCGTCCAGCCACCGTCACGCCGCGCGGGGCGCCCGGAGTCACCTAGTGCAG,3830 fluorescence intensity (a.u.)
3,CCTTTCCTCCTTGTTACGTGGAGGGCCACACGCTCTGCAGCGGAGTCACCTAGTGCAG,5750 fluorescence intensity (a.u.)
4,TCCCTCTTCCTCAAGCGCATCACCGTCACCGACGACGACCCGGAGTCACCTAGTGCAG,3800 fluorescence intensity (a.u.)
5,GCATGAGGGTGTAGACGTGGAACGCCTTGCCGATCTTGCGCGGAGTCACCTAGTGCAG,4750 fluorescence intensity (a.u.)
6,AAGAAGGAGAGGGGAGGGGCTGACGGGTGGGATCACGTCGCGGAGTCACCTAGTGCAG,4600 fluorescence intensity (a.u.)
7,TGGACCATGTGATTGTCAATGACAATGACCCATCATTGATCGGAGTCACCTAGTGCAG,3220 fluorescence intensity (a.u.)
8,TTAACAGTGAGCTTGCGTGATGTCAGGTCAAATCGGGGAGCGGAGTCACCTAGTGCAG,3900 fluorescence intensity (a.u.)
9,CCATCGAATCCGGTTCGCGCGCAAGCAAAATCAGCAGCGTCGGAGTCACCTAGTGCAG,3830 fluorescence intensity (a.u.)
10,GCCGGCGAGGCTGCTGCCGGCAACGTCGATGACGAAGCGGCGGAGTCACCTAGTGCAG,4780 fluorescence intensity (a.u.)
11,CAGCCATATGATTAGTGCTCCGTATTACTTAGAATCAAGCCGGAGTCACCTAGTGCAG,21700 fluorescence intensity (a.u.)
12,TTTCCTGCGCACGCAAAACATAGCGACGTATTTTCTTAAGCGGAGTCACCTAGTGCAG,3480 fluorescence intensity (a.u.)
13,GAAACGCTTGCCTGGACGTGGACGGAGCCGAGGACACATGCGGAGTCACCTAGTGCAG,34000 fluorescence intensity (a.u.)
14,TCGCCCTCGCCGCCGACGAGCTCGCCGCCGCGTTCCCGACCGGAGTCACCTAGTGCAG,3540 fluorescence intensity (a.u.)
15,CCATTCCCAAAAGCAAAGCGAACCTAAGCTCGCTTCGTCTCGGAGTCACCTAGTGCAG,21000 fluorescence intensity (a.u.)
16,ACAGTGCATGCATAAATTAAAACACCATACCAATTACTCCCGGAGTCACCTAGTGCAG,28100 fluorescence intensity (a.u.)
17,GGCCGGTGACATGATGTGTATATGTGTAGCCGCTGCCGCTCGGAGTCACCTAGTGCAG,7290 fluorescence intensity (a.u.)
18,GCAAACATGTGTTAAGACTTAACAGGTGGAAGTAACCGACCGGAGTCACCTAGTGCAG,3230 fluorescence intensity (a.u.)
19,CGATGATTCTTCAATTAATTACACAGCTCTAGTGTGTAAACGGAGTCACCTAGTGCAG,22700 fluorescence intensity (a.u.)
20,ATTACAGTGTGCTTACATGTCATATCAACCTAATATGCACCGGAGTCACCTAGTGCAG,5340 fluorescence intensity (a.u.)
21,CGCAGCCATTACCGGCTAGCGGCCACGTGGCGCGAGCGATCGGAGTCACCTAGTGCAG,22300 fluorescence intensity (a.u.)

row,Sequence,binding signal
1,AGTTTCACCATGCCTATTTAAATGGCTTCTTCTCTTTCCACGGAGTCACCTAGTGCAG,3360 fluorescence intensity (a.u.)
2,AAGCTAGTACAAGATGCGAAATGTCGTCAGATTCAGAGATCGGAGTCACCTAGTGCAG,3580 fluorescence intensity (a.u.)
3,CTCACTTCTCTCACCTCCCTATCAAATGCCAACTCAGCAACGGAGTCACCTAGTGCAG,6360 fluorescence intensity (a.u.)
4,ATCTACGCGACGTGGTACCCTGTGGGAGGTGTGCGTGGTACGGAGTCACCTAGTGCAG,4800 fluorescence intensity (a.u.)
5,CGACGATATCATCCATCTCACCCGTCGTCACCGCCTCGGCCGGAGTCACCTAGTGCAG,3260 fluorescence intensity (a.u.)
6,CACTCCTGCTCGACTCCTTGGTGACGTTTCTGTTTCTGTTCGGAGTCACCTAGTGCAG,6370 fluorescence intensity (a.u.)
7,TGAATAAAAGTGTGGACCCCACATGTCAGTGACTCATTAACGGAGTCACCTAGTGCAG,4590 fluorescence intensity (a.u.)
8,TTAAAGACCGTCTTCATTCCTAGGAAAATACCATCAATCACGGAGTCACCTAGTGCAG,4580 fluorescence intensity (a.u.)
9,TTTTGCCACATCAGATAACACATGTAACTCCACTAGATCCCGGAGTCACCTAGTGCAG,13000 fluorescence intensity (a.u.)
10,AAACTTCTGAAATGGTTTCTGCAACAAGCTGACATGTACCCGGAGTCACCTAGTGCAG,5710 fluorescence intensity (a.u.)
11,TCCGCCGTCGCCGCTCCGTCCATCGCCCGCCGTCACCGCCCGGAGTCACCTAGTGCAG,4040 fluorescence intensity (a.u.)
12,CCATGCATCCCATCAAACCGGAAACAGATCCTCTGACGTGCGGAGTCACCTAGTGCAG,3630 fluorescence intensity (a.u.)
13,TCCCCTCGCGGCGAACGCGCGCGCGCAACGAGAAGCCAAGCGGAGTCACCTAGTGCAG,3200 fluorescence intensity (a.u.)
14,GCAAACACGCACCCTCCCAACAGACGCCTCCTCCCCTCCCCGGAGTCACCTAGTGCAG,28400 fluorescence intensity (a.u.)
15,CGGTGAAACAACCACCGAGTTGATCTACTGAAATGTAGTGCGGAGTCACCTAGTGCAG,3750 fluorescence intensity (a.u.)
16,TTTTATAAATTCGAGCGTGTGCGGGTTTCGTTTTCTCACTCGGAGTCACCTAGTGCAG,3290 fluorescence intensity (a.u.)
17,GCCTCCAAATAATTCGTTCTCGTGTAGTCGTCAGCTACGTCGGAGTCACCTAGTGCAG,5350 fluorescence intensity (a.u.)
18,CGAACCGTCGCGCCACACGTGGCCCACCACAACCACTAACCGGAGTCACCTAGTGCAG,6630 fluorescence intensity (a.u.)
19,AAATTCCACGTGCCACATATTTCGTTCATTTGAGTTTATTCGGAGTCACCTAGTGCAG,8820 fluorescence intensity (a.u.)
20,CCACATTAATACGCATGGAATTACACGTGTACGAGTAGGCCGGAGTCACCTAGTGCAG,10200 fluorescence intensity (a.u.)
21,AAAGCTACGAGTTGTACGTGGCCTAAAAGGCTCAACTATCCGGAGTCACCTAGTGCAG,3190 fluorescence intensity (a.u.)

# Already shown: entries from further up.
row,Sequence,binding signal
11,TCCGCCGTCGCCGCTCCGTCCATCGCCCGCCGTCACCGCCCGGAGTCACCTAGTGCAG,4040 fluorescence intensity (a.u.)
12,CCATGCATCCCATCAAACCGGAAACAGATCCTCTGACGTGCGGAGTCACCTAGTGCAG,3630 fluorescence intensity (a.u.)
13,TCCCCTCGCGGCGAACGCGCGCGCGCAACGAGAAGCCAAGCGGAGTCACCTAGTGCAG,3200 fluorescence intensity (a.u.)
